Reference: patent US9149525B2, “Delivery of corticosteroids through iontophoresis” (EyeGate Pharmaceuticals, Inc., priority 2008, dated 2015)
Read-outs that look alike come from different tables or passages of the source.

How the values were obtained:
[1] = 0.1% solutions; cited from earlier work
[2] = for plasma and ocular tissue concentrations and exposure of dexamethasone, 40 mg/mL versus 60 mg/mL solution: iontophoretic administration
[3] = after iontophoresis
[4] = 40 mg/mL; single iontophoretic dose 2.5 mA for 5 minutes; listed as DEX phosphate free acid
[5] = rabbit, in vivo

SMILES | penetration of the intact cornea [1] | plasma and ocular tissue concentrations at 24 hours compared to peak concentrations ([2]; 24 hours post iontophoretic administration) | plasma and ocular tissue concentrations and exposure of dexamethasone, 40 mg/mL versus 60 mg/mL solution [2] | plasma and ocular tissue concentrations and exposure of dexamethasone, 40 mg/mL versus 60 mg/mL solution ([2]; listed as DEX-P) | time of peak dexamethasone concentrations in ocular tissues or plasma ([2]; post iontophoretic dosing) | original DEX phosphate concentration present in the donor chamber [3] | dexamethasone concentrations in plasma and ocular tissues compared to formulations prepared from DEX phosphate disodium salt [4] | systemic exposure (plasma) at two hours post dosing [5] [ng/mL]
C[C@@H]1C[C@H]2[C@@H]3CCC4=CC(=O)C=C[C@]4(C)[C@@]3(F)[C@@H](O)C[C@]2(C)[C@@]1(O)C(=O)COP(=O)(O)O [DEX phosphate, dexamethasone phosphate] | do not readily penetrate | relatively low | Dose proportional increases | DOSE PROPORTIONAL | within two hours | Approximately 95% | higher | 
C[C@@H]1C[C@H]2[C@@H]3CCC4=CC(=O)C=C[C@]4(C)[C@@]3(F)[C@@H](O)C[C@]2(C)[C@@]1(O)C(=O)COP(=O)([O-])[O-].[Na+].[Na+] [DEX disodium phosphate, dexamethasone disodium phosphate] |  |  |  |  |  |  |  | < 100
